These are yes or no findings as the source states them, for the method shown. In cells and extracts the contact can be indirect. Some binding calls cover weakened binding; strength is not graded here.

Chains of the proteins cited; added tags and fusions are not shown. Residues count along the entry.
UniProt P02649, residues 19-317: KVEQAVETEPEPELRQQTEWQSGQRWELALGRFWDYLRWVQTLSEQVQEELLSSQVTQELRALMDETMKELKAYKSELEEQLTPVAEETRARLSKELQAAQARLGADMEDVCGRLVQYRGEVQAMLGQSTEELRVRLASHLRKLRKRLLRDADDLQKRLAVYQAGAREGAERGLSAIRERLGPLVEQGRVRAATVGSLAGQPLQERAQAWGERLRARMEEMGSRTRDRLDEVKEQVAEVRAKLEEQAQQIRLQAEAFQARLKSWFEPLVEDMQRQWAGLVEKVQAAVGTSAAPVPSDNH
UniProt Q14258: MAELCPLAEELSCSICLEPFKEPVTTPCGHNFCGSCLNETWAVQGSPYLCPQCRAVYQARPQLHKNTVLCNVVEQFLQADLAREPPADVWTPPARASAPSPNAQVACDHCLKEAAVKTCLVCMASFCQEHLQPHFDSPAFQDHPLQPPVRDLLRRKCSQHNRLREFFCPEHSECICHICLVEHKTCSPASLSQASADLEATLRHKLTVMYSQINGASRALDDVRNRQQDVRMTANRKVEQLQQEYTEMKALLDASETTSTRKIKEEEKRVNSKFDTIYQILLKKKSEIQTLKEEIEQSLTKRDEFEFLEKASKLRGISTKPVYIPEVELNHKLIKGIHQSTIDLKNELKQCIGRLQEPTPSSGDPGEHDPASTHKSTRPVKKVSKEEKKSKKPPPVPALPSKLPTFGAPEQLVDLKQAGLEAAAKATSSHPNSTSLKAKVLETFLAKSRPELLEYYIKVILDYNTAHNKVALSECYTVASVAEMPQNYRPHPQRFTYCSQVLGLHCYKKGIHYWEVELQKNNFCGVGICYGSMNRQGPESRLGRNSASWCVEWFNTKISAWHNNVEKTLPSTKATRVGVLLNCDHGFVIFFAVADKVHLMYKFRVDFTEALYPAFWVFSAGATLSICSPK

Binding data for one substance are collected here from publication PMC12068304.

The target of this test is Apolipoprotein E (human (endogenous in LNCaP)) (UniProt P02649). Nature of the test: co-IP; LNCaP cell lysates in NP40 buffer with PMSF and phosphatase inhibitor cocktail, followed by immunoblotting. For orientation: In western blotting, separated proteins are transferred to a membrane and probed.

With “Tripartite motif 25 (from UniProt Q14258 1-630) (enzyme)”, the binding entry is on record as “binds”.
